Test results published in paper PMC9241615.
These are yes or no findings as the source states them, for the method shown. Binding seen in cells or lysates may run through a third protein. A result given as binding can be weak or reduced; the word gives no strength.

Sequences of proteins named here, by UniProt entry; tags and fusion partners are left off. A change or cut given only in a name is not applied to a line headed by its entry. A line that says so, or that is headed by a name, gives the form on record, which may keep a tag or linker.
UniProt Q5MWV9: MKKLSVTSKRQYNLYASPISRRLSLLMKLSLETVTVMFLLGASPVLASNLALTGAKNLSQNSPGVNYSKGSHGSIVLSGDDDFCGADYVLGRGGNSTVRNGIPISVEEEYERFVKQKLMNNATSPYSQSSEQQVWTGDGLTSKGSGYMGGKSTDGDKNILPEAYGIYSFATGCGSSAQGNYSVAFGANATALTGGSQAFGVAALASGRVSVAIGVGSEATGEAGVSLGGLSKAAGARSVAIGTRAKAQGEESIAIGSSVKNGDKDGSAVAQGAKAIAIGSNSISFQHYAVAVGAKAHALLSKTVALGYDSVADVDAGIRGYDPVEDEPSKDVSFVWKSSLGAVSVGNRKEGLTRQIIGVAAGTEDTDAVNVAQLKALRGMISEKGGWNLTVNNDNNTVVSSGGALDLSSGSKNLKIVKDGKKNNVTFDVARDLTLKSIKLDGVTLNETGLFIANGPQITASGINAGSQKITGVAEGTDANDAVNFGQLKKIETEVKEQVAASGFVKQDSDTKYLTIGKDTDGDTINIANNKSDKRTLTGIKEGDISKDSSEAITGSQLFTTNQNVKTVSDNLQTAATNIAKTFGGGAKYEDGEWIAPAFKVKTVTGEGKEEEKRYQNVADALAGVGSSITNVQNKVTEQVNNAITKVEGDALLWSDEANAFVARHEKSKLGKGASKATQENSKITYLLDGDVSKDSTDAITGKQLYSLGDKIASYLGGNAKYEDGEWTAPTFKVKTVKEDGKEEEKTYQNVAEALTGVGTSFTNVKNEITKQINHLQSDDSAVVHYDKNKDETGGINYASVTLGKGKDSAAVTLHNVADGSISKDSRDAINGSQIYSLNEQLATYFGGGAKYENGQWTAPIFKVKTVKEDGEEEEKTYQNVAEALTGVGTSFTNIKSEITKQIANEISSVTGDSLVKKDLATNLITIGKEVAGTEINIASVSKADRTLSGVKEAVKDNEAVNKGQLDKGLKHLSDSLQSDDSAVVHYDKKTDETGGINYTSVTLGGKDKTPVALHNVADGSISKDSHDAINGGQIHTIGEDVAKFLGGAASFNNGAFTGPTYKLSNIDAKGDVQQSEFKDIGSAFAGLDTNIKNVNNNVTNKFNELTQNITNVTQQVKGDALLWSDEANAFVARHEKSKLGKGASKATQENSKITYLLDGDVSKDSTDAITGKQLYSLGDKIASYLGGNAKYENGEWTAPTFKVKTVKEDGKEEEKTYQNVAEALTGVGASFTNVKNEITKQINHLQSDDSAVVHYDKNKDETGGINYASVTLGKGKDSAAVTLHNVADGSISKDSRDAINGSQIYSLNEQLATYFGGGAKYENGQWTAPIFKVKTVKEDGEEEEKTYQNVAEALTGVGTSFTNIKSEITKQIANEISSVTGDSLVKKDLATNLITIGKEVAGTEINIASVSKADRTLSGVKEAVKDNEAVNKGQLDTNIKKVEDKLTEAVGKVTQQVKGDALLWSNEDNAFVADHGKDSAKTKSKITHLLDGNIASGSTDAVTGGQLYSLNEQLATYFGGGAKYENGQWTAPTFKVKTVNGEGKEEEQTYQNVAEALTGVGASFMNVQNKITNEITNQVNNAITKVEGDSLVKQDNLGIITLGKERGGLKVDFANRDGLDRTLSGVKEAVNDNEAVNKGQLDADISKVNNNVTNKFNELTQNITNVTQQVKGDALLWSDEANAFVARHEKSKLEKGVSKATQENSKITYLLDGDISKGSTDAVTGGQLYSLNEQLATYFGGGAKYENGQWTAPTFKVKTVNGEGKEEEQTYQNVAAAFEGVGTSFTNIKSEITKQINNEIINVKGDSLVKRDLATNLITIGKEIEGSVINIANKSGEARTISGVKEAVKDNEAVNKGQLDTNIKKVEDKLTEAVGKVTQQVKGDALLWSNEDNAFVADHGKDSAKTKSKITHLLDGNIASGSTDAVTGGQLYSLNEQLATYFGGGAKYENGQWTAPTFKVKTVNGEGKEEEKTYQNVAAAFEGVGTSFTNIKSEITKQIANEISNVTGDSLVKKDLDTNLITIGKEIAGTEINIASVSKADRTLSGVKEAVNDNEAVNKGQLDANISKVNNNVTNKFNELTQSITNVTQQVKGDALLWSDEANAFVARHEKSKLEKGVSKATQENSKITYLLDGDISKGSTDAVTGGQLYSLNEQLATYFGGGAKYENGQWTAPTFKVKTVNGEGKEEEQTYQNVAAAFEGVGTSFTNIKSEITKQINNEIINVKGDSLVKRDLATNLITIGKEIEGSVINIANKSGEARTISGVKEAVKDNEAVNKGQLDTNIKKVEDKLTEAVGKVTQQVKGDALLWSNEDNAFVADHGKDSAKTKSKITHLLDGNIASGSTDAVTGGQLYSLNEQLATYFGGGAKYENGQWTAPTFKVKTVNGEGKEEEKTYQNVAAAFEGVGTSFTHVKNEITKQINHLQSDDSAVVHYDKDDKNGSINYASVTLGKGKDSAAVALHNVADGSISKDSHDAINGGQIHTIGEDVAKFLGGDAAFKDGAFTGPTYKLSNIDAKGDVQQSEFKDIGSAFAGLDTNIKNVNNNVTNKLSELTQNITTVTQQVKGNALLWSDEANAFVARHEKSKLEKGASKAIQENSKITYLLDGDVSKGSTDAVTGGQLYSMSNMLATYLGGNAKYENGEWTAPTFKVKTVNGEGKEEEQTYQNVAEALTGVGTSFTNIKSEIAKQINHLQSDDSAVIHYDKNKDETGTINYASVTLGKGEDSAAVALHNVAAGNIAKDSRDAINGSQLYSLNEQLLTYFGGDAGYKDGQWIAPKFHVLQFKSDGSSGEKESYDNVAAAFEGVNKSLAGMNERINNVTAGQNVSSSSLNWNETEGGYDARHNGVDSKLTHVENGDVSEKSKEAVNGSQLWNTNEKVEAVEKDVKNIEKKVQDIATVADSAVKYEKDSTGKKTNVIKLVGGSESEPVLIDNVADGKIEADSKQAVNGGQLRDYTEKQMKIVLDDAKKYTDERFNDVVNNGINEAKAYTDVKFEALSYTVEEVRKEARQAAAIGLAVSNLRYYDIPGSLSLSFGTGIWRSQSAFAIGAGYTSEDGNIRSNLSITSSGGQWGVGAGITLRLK
recombinant human fibronectin (Rn Fn), isoform 1 (P02751-1, form named): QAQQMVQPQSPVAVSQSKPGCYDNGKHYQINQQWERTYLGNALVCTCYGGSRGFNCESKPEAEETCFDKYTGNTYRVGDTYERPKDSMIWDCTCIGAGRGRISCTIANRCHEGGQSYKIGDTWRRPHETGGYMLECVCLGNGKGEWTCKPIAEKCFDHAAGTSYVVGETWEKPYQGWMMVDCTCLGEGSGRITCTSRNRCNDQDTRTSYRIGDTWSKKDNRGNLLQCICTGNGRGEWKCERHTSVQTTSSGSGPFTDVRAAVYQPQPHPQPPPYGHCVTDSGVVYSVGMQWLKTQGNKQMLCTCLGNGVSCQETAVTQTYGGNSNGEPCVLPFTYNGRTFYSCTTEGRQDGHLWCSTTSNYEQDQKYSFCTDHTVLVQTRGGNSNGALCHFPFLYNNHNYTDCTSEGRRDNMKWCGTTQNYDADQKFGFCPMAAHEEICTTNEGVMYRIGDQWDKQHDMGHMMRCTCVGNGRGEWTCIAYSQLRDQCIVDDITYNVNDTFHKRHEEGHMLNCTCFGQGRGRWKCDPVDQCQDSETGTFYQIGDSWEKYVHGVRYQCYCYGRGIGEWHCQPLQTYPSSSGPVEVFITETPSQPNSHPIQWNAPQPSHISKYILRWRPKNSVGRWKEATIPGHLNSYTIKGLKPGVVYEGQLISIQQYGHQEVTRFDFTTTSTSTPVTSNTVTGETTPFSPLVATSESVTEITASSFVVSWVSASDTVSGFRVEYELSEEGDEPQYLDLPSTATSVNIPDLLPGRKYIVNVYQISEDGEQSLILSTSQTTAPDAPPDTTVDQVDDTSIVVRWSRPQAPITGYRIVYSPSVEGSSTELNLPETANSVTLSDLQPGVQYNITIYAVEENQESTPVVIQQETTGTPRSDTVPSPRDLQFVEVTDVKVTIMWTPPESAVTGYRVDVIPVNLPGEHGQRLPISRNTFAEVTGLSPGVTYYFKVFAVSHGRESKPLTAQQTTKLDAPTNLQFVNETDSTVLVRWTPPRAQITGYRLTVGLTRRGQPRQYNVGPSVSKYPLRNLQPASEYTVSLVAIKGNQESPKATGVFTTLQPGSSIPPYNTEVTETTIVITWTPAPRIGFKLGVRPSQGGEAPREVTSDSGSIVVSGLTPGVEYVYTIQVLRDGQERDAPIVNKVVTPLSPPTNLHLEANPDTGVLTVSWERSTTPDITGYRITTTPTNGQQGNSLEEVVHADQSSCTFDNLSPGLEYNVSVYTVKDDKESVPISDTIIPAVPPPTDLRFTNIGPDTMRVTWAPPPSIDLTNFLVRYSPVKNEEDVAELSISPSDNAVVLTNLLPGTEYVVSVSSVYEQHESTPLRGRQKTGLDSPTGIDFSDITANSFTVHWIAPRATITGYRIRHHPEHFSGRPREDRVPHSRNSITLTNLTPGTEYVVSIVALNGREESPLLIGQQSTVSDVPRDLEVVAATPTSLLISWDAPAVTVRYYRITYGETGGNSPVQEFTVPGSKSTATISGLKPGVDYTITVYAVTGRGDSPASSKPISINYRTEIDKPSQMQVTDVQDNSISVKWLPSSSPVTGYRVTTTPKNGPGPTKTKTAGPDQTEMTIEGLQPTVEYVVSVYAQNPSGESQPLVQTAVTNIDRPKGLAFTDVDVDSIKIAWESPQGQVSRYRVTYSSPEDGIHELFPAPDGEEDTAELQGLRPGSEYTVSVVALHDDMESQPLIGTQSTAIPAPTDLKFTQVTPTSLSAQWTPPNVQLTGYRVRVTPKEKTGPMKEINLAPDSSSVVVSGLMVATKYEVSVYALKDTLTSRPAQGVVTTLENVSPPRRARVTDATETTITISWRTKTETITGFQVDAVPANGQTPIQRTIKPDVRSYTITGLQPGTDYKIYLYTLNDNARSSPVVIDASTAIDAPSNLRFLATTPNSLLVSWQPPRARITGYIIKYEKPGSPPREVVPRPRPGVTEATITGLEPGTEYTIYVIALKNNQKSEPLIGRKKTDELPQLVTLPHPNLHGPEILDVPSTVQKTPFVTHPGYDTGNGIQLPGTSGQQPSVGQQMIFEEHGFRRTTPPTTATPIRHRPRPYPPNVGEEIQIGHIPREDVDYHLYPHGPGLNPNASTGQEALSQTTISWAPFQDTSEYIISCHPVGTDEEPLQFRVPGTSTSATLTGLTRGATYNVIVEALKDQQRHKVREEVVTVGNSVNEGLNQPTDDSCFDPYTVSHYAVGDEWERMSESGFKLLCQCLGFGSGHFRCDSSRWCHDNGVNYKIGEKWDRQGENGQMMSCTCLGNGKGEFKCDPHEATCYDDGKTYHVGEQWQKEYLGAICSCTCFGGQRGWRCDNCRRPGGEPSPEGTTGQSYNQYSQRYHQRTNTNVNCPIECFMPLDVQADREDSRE

Molecular target: Bartonella adhesin A (BadA) on whole B. henselae Marseille wild type bacteria (Bartonella henselae (strain Marseille)) (UniProt Q5MWV9)
Experiment: cross-linking; XL-MS; whole B. henselae WT (BadA^- as negative control) incubated with purified Rn Fn or cellular Fn (7.5 μg, 30 min, 37°C, DPBS), washed, DSS-H12/D12 500 or 2,000 μM for 60 min at 37°C; surface-attached or whole-cell proteins; trypsin, DDA-MS, pLink 2, FDR 1%; only the binder purified

How did the binding turn out when “recombinant human fibronectin (Rn Fn), isoform 1 (from UniProt P02751-1 32-2386)” was run?
The binding was “binds”.
